These are yes or no findings as the source states them, for the method shown. In cells and extracts the contact can be indirect. These calls come from enrichment with a bait or labelling near it, and not all partners need be listed. Values belong to the molecule of their own block, whether it stands above or below them.
Tests used:
LAP-CP110 = LAP-CP110 (UniProt O43303); experiment: affinity purification with mass spectrometry; 293T cells stably expressing LAP, LAP-CP110 or LAP-EHD1, serum-starved 3 h; lysis in 50 mM Tris-HCl pH 7.4, 150 mM NaCl, 1% Triton-X100, 10% glycerol; GFP-Trap resin, 2 h in a cold room; LC-MS/MS; n = 1 for LAP-EHD1 and LAP-CP110, n = 2 for LAP
LAP-EHD1 = target: T1, LAP-EHD1 (UniProt Q9H4M9); experiment: as above
T1 sequence: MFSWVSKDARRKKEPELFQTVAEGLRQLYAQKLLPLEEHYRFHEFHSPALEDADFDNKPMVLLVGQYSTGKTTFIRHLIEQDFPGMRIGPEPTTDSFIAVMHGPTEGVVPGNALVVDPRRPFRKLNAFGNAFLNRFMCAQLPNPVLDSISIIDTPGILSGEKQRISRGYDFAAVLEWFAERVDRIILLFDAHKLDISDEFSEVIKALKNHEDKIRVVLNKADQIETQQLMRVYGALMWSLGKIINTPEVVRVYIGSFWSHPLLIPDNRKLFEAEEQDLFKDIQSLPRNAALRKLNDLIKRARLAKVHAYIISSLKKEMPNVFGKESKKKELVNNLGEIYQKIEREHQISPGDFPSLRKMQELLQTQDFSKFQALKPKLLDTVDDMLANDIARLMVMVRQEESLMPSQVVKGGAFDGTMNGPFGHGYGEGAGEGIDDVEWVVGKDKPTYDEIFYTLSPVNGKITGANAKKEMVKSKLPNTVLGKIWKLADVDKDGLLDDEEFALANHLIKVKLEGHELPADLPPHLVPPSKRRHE

Chains of the proteins cited; added tags and fusions are not shown.
UniProt O43303: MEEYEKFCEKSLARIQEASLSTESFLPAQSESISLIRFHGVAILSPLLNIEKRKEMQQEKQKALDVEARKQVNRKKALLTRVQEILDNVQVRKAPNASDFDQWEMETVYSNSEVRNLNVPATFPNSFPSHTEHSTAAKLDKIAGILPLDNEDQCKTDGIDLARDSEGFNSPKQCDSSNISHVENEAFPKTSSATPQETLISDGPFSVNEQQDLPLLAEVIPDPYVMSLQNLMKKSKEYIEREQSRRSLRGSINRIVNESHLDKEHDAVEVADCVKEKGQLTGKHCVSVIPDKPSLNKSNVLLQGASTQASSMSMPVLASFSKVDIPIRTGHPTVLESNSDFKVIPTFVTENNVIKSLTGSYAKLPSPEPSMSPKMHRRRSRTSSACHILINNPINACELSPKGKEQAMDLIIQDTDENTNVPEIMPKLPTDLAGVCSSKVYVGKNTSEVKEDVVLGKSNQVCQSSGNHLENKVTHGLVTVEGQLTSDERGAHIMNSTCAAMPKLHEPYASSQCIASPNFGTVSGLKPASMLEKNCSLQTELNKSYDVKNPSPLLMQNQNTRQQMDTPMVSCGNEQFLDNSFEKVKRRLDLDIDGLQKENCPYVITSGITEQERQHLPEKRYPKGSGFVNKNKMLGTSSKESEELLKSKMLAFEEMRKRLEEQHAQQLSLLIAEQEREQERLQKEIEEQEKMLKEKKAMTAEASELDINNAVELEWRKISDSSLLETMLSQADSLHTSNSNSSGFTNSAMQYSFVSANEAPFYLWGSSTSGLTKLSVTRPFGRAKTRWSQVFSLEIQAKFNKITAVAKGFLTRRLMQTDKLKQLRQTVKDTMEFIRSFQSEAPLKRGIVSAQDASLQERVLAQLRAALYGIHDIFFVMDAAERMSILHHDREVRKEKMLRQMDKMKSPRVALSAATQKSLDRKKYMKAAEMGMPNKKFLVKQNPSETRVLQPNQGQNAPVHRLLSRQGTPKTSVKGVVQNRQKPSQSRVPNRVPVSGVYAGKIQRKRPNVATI
UniProt O95714: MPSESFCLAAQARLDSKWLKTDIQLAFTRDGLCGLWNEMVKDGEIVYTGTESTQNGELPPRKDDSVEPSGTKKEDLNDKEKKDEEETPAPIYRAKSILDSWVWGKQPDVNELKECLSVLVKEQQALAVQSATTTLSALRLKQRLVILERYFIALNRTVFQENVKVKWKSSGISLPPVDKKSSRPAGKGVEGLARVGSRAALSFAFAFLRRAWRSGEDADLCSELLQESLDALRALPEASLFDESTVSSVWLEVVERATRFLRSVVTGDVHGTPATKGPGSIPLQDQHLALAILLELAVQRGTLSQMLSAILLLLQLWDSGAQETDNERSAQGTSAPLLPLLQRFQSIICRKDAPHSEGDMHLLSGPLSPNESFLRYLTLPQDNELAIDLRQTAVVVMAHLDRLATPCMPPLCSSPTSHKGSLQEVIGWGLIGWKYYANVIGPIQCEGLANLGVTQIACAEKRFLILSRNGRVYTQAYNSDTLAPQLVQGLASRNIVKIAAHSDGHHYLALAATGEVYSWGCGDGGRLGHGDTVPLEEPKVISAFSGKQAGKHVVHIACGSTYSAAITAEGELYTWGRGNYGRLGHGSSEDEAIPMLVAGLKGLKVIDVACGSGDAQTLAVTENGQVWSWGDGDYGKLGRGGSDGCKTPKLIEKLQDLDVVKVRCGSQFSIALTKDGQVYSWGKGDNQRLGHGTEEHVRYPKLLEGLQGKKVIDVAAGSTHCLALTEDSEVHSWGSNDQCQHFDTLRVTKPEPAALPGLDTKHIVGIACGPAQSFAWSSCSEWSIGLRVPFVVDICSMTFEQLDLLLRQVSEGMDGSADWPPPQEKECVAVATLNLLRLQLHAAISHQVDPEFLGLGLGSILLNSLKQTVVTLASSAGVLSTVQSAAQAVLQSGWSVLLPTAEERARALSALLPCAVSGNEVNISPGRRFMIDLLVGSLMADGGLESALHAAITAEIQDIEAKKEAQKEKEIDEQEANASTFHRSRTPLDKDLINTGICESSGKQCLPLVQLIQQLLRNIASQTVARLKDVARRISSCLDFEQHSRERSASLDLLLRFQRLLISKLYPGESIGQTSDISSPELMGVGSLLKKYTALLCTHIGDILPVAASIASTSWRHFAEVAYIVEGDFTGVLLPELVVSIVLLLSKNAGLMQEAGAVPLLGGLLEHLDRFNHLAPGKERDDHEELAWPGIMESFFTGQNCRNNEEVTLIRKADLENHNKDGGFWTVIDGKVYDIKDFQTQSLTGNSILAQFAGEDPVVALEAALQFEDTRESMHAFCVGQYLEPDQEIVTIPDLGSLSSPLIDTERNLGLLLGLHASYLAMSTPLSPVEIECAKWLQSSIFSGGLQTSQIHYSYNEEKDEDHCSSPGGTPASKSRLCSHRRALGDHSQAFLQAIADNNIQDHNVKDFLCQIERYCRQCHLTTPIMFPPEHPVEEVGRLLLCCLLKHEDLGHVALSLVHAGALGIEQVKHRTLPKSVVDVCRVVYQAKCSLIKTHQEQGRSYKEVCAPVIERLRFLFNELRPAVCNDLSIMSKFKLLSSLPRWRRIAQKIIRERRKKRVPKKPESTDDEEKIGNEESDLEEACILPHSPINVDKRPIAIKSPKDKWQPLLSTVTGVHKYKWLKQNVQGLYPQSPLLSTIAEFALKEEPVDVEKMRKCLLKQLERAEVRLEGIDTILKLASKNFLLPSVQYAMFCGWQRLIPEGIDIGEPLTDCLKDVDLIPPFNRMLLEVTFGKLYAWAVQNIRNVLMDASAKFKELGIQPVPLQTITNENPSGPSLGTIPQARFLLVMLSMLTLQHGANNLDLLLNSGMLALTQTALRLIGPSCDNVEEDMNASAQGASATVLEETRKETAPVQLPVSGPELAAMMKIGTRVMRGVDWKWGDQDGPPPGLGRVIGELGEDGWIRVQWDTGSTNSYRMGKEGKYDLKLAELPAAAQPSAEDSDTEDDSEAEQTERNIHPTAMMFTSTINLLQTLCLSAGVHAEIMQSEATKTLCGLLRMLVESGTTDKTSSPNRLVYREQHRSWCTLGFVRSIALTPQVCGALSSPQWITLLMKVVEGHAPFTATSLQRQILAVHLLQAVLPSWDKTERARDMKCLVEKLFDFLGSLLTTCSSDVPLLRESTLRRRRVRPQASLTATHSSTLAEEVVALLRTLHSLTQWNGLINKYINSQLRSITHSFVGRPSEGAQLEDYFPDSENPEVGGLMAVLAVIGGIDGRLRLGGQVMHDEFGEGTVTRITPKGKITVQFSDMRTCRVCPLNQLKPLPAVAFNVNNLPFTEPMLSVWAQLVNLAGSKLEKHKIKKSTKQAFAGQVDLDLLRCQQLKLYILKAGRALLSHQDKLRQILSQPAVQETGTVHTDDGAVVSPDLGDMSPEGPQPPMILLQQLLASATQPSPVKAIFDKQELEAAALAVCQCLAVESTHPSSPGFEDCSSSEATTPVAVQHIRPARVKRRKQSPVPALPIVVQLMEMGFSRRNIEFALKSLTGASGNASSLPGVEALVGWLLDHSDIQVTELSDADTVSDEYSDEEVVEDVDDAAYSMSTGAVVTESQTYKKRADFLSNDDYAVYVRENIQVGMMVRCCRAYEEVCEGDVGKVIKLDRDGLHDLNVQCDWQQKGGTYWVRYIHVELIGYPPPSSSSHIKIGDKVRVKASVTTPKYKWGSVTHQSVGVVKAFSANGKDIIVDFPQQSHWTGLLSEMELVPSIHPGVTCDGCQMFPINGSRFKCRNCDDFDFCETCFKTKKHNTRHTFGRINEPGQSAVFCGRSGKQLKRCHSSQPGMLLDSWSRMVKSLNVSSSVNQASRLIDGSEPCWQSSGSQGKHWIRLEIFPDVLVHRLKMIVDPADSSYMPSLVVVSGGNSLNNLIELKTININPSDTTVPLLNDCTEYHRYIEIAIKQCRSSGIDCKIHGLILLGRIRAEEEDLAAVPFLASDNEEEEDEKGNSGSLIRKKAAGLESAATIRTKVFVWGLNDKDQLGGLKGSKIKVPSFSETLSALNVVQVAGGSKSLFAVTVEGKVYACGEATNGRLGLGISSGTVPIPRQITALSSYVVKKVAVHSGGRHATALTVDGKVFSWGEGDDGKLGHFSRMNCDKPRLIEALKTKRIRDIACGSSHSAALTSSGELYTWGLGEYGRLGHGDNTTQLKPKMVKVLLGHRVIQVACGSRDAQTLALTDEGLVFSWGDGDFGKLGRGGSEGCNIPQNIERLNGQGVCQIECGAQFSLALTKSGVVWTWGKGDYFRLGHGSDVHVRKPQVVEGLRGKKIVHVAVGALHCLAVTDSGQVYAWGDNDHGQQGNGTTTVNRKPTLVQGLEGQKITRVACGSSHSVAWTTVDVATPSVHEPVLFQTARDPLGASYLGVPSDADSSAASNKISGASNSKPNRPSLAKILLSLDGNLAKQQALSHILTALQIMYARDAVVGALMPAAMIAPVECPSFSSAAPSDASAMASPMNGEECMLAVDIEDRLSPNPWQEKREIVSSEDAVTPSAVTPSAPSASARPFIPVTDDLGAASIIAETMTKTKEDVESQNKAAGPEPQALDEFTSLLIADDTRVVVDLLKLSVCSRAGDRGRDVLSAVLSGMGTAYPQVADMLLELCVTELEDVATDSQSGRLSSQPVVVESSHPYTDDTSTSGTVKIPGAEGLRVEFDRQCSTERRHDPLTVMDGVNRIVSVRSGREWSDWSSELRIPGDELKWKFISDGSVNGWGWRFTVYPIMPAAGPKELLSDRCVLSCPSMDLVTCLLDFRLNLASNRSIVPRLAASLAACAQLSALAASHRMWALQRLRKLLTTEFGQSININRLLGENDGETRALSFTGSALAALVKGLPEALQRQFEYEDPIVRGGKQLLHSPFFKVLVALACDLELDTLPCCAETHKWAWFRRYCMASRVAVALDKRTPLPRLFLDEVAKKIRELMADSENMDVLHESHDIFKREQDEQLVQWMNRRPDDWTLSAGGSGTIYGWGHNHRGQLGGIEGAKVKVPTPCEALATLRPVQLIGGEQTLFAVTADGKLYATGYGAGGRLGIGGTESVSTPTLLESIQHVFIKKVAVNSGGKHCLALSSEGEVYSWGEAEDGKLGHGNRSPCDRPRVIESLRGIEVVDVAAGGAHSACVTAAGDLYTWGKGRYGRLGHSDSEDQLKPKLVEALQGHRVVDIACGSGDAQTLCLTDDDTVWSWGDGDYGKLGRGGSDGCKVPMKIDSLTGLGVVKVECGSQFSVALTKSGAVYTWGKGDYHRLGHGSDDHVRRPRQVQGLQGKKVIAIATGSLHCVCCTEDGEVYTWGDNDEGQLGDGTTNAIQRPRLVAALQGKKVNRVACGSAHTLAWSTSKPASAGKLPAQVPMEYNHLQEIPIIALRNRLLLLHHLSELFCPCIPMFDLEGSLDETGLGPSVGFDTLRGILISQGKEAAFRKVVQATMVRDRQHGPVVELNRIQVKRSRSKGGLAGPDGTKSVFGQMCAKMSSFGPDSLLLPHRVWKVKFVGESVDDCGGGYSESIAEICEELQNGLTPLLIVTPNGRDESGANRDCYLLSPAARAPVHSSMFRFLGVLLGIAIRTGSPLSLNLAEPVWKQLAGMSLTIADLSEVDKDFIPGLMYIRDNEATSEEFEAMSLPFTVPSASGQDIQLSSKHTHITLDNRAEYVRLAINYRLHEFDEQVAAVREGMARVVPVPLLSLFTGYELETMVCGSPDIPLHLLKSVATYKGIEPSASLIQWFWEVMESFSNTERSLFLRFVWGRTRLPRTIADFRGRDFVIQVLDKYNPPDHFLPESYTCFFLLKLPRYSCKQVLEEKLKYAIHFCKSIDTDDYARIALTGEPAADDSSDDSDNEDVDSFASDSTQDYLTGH

binding (LAP-CP110): binds
Molecule: CEP290 (from UniProt O15078 1-2479)

binding (LAP-CP110): binds | binding (LAP-EHD1): binds
Molecule: HERC2 (from UniProt O95714 1-4834) (enzyme)

binding (LAP-CP110): binds
Molecule: NEURL4 (from UniProt Q96JN8 1-1562)

binding (LAP-CP110): binds
B1: EHD1 (endogenous) (protein, UniProt Q9H4M9 1-534)
chain: T1 sequence
